PubChem BioAssay AID743121 | NCATS – 2013
Aim: 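Genes whose silencing strengthens cell killing by camptothecin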 (primary screen). System: MDA-MB-231 cells, a human breast cancer line. Reagent: single siRNA against human genes, 20 nM siRNA (0.8 pmol per well). Time to read-out: 120 h (drug added 48 h after transfection, read 72 h later). Treatment: camptothecin 20 nM (about EC30) for 72 h; vehicle 0.1% DMSO in parallel plates. Read-out: 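CellTiter-Glo ATP signal, scaled to control siRNA as percent viability; sensitisation given as log2 of untreated divided by camptothecin-treated viability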. Scale: log2 vehicle/camptothecin viability: higher = stronger sensitisation to camptothecin. Hit rule: 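Active genes have an RSA gene-level p-value below 0.001, computed from the ratios of their separate siRNAs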.
The deposit covers about 26,000 reagents; this is an unselected part. 167 of them (0.63%) were called active. 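Calls are per gene from RSA p-values that are not deposited; an individual active-marked siRNA can sensitise only weakly.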 A number with no mark means an inactive call. The numbers tell different reagents against one gene apart. Further read-outs or replicates are left out here.

log2 vehicle/camptothecin viability | target | reagent no.
-0.0551 | HDAC2 | 1
-0.0254 | HDAC2 | 2
0.0704 | HDAC2 | 3
-0.539 | HDAC2 | 4
-0.255 | CTDSPL | 1
1.09 | CTDSPL | 2
-0.163 | CTDSPL | 3
-0.173 | CTDSPL | 4
-0.281 | JAM3 | 1
0.0349 | JAM3 | 2
0.516 | JAM3 | 3
-0.153 | KCNJ16 | 1
-0.179 | KCNJ16 | 2
-0.479 | KCNJ16 | 3
0.011 | SHROOM2 | 1
0.118 | SHROOM2 | 2
-0.49 | SHROOM2 | 3
-0.234 | SHROOM2 | 4
-0.393 | LGR6 | 1
0.31 | LGR6 | 2
-0.365 | LGR6 | 3
0.318 | LGR6 | 4
-0.0184 | BCL3 | 1
-0.0223 | BCL3 | 2
-0.264 | BCL3 | 3
-0.344 | BCL3 | 4
0.6 | USP19 | 1
-0.152 | USP19 | 2
-0.22 | USP19 | 3
-0.368 | USP19 | 4
-0.188 | SLC9D1 | 1
-0.465 | SLC9D1 | 2
-0.243 | SLC9D1 | 3
-0.171 | ABCG4 | 1
-0.0957 | ABCG4 | 2
0.0432 | ABCG4 | 3
-0.254 | ABCG4 | 4
-0.243 | TLN2 | 1
-0.515 | TLN2 | 2
-0.387 | TLN2 | 3
-0.19 | TLN2 | 4
-0.154 | TXNDC11 | 1
-0.681 | TXNDC11 | 2
-0.122 | TXNDC11 | 3
0.171 | CYP19A1 | 1
-0.083 | CYP19A1 | 2
0.493 | CYP19A1 | 3
-0.116 | CYP19A1 | 4
-0.00149 | FKBP9 | 1
-0.0939 | FKBP9 | 2
-0.399 | FKBP9 | 3
-0.117 | FKBP9 | 4
-0.496 | FBXO27 | 1
0.231 | FBXO27 | 2
-0.0999 | FBXO27 | 3
0.506 | FBXO27 | 4
0.0986 | CEBPG | 1
-0.17 | CEBPG | 2
-0.248 | CEBPG | 3
0.641 | CEBPG | 4
-0.304 | SERPINA1 | 1
-0.0657 | SERPINA1 | 2
-0.269 | SERPINA1 | 3
-0.44 | RAC2 | 1
0.114 | RAC2 | 2
1.34 | RAC2 | 3
-0.347 | RAC2 | 4
-0.22 | OR8U8 | 1
-0.523 | OR8U8 | 2
-0.349 | OR8U8 | 3
